Experimental data: PubChem BioAssay AID493246 (Drosophila RNAi Screening Center, 2011)
The deposit covers about 21,000 reagents; shown is an unselected part of those with a known target gene and a result. Of all reagents, 429 (2%) got an active call. 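Values are raw and not normalised between plates; calls rest on per-plate z-scores that were not deposited.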 Entries without a mark were called inactive. The numbers tell different reagents against one gene apart. Reagent sequences are not shown. Not stated in the record: the amount of reagent, the time to read-out.

Aim: 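Genome-wide search for dsRNAs that reduce cell number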 (primary screen)
System: Drosophila Kc and S2R+ cells
Reagents: long dsRNA against Drosophila genes
Detection: 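Raw, unnormalised count of remaining cells in each well; per-plate z-scores of cell number underlie the calls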
Reading the numbers: Kc cell number and S2R+ cell number: higher = more cells remaining
Active means: 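Active when the per-plate z-score of cell number is 3 or more in the direction of fewer cells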

After knock-down of CG31272, the screen gave Kc cell number, rep 1 = 1.61e6; Kc cell number, rep 2 = 1.82e6; S2R+ cell number, rep 1 = 1.20e6; S2R+ cell number, rep 2 = 1.31e6.
After knock-down of CG6044 the results were Kc cell number, rep 1 = 1.60e6; Kc cell number, rep 2 = 1.71e6; S2R+ cell number, rep 1 = 1.20e6; S2R+ cell number, rep 2 = 1.39e6.
After knock-down of CG6805, the screen gave Kc cell number, rep 1 = 1.43e6; Kc cell number, rep 2 = 1.47e6; S2R+ cell number, rep 1 = 1.18e6; S2R+ cell number, rep 2 = 1.23e6.
With knock-down of Unc50, the screen gave Kc cell number, rep 1 = 1.43e6; Kc cell number, rep 2 = 1.51e6; S2R+ cell number, rep 1 = 1.33e6; S2R+ cell number, rep 2 = 1.45e6.
Silencing of Vha68-2 gave: Kc cell number, rep 1 = 1.53e6; Kc cell number, rep 2 = 1.54e6; S2R+ cell number, rep 1 = 1.25e6; S2R+ cell number, rep 2 = 1.40e6.
Prx2 scored Kc cell number, rep 1 = 1.57e6; Kc cell number, rep 2 = 1.53e6; S2R+ cell number, rep 1 = 1.09e6; S2R+ cell number, rep 2 = 1.18e6.
AspRS-m gave Kc cell number, rep 1 = 1.56e6; Kc cell number, rep 2 = 1.60e6; S2R+ cell number, rep 1 = 1.24e6; S2R+ cell number, rep 2 = 1.38e6.

Quoted from the listing, 2 entries:
CG6044 | Kc cell number, rep 1: 1.60e6; Kc cell number, rep 2: 1.71e6; S2R+ cell number, rep 1: 1.20e6; S2R+ cell number, rep 2: 1.39e6
CG6805 | Kc cell number, rep 1: 1.43e6; Kc cell number, rep 2: 1.47e6; S2R+ cell number, rep 1: 1.18e6; S2R+ cell number, rep 2: 1.23e6

Additional records follow.
Against CG32214, the values are Kc cell number, rep 1 = 1.46e6; Kc cell number, rep 2 = 1.51e6; S2R+ cell number, rep 1 = 1.03e6; S2R+ cell number, rep 2 = 1.22e6.
For CG31948, the entry reads Kc cell number, rep 1 = 1.65e6; Kc cell number, rep 2 = 1.78e6; S2R+ cell number, rep 1 = 9.94e5; S2R+ cell number, rep 2 = 1.24e6.
Against CG15422 the deposit lists Kc cell number, rep 1 = 1.65e6; Kc cell number, rep 2 = 1.60e6; S2R+ cell number, rep 1 = 1.21e6; S2R+ cell number, rep 2 = 1.38e6.
Knock-down of CG10194 gave: Kc cell number, rep 1 = 1.42e6; Kc cell number, rep 2 = 1.48e6; S2R+ cell number, rep 1 = 1.30e6; S2R+ cell number, rep 2 = 1.37e6.
Knock-down of beta-Man #1 gave: Kc cell number, rep 1 = 1.48e6; Kc cell number, rep 2 = 1.50e6; S2R+ cell number, rep 1 = 1.31e6; S2R+ cell number, rep 2 = 1.40e6.
Knock-down of beta-Man #2 gave: Kc cell number, rep 1 = 1.33e6; Kc cell number, rep 2 = 1.36e6; S2R+ cell number, rep 1 = 1.35e6; S2R+ cell number, rep 2 = 1.43e6.
Against CG5180, the values are Kc cell number, rep 1 = 1.62e6; Kc cell number, rep 2 = 1.59e6; S2R+ cell number, rep 1 = 1.15e6; S2R+ cell number, rep 2 = 1.16e6.
Against CG17195, the entry reads Kc cell number, rep 1 = 1.60e6; Kc cell number, rep 2 = 1.54e6; S2R+ cell number, rep 1 = 9.61e5; S2R+ cell number, rep 2 = 1.10e6.
With knock-down of plum, the record shows Kc cell number, rep 1 = 5.20e5; S2R+ cell number, rep 1 = 7.80e5.
Against beat-IIb #1, the values are Kc cell number, rep 1 = 1.38e6; Kc cell number, rep 2 = 1.43e6; S2R+ cell number, rep 1 = 1.00e6; S2R+ cell number, rep 2 = 1.06e6.
After knock-down of beat-IIb #2, the screen gave Kc cell number, rep 1 = 1.20e6; Kc cell number, rep 2 = 1.42e6; S2R+ cell number, rep 1 = 1.17e6; S2R+ cell number, rep 2 = 1.32e6.
Against beat-IIb #3, the entry reads Kc cell number, rep 1 = 1.30e6; Kc cell number, rep 2 = 1.48e6; S2R+ cell number, rep 1 = 1.25e6; S2R+ cell number, rep 2 = 1.45e6.
With knock-down of ALiX, the screen gave Kc cell number, rep 1 = 5.13e5; S2R+ cell number, rep 1 = 8.03e5.
Against spag4, the values are Kc cell number, rep 1 = 1.61e6; Kc cell number, rep 2 = 1.66e6; S2R+ cell number, rep 1 = 1.35e6; S2R+ cell number, rep 2 = 1.59e6.
